Our source for the binding values is patent publication US20220235144A1.

The chains behind the UniProt entries cited, without tags or fusion partners. Where a name states a change or a piece, a line headed by the entry shows the natural chain unless it says otherwise. A line that says so, or that is headed by a name, gives the form on record, which may keep a tag or linker.
UniProt Q9P1W8: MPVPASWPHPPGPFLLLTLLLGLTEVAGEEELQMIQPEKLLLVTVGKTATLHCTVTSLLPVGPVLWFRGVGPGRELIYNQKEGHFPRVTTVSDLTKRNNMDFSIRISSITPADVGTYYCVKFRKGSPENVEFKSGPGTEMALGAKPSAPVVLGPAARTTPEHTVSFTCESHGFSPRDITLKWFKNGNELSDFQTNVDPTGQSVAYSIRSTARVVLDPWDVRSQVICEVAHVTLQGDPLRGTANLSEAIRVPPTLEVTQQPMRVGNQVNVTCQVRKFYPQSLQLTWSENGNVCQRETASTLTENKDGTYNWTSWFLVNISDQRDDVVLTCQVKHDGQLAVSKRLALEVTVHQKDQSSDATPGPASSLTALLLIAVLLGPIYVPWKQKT
hSIRPαV2 expressed on the cell surface (P78324, form named): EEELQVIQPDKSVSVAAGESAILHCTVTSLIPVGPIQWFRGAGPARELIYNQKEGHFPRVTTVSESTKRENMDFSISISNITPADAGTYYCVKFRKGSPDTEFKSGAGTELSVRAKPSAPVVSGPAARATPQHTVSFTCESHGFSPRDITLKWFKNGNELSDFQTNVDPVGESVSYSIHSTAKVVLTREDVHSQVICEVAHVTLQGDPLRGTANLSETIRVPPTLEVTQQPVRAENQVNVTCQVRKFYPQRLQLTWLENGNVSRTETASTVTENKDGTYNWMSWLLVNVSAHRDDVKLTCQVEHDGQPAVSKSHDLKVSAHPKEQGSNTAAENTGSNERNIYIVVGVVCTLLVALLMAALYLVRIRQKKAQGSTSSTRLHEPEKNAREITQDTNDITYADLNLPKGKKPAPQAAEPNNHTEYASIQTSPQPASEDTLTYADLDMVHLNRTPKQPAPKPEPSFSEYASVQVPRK

These are yes or no findings as the source states them, for the method shown. Some entries that bind do so weakly or less than the wild type.

The target in assay [1] is hSIRPγD1 with histidine tag (human) (UniProt Q9P1W8). The assay can be described thus: SPR (Biacore), summary of Tables 13 and 14. On the technique in general: SPR reads the build-up and loss of mass on a sensor chip optically.
Assay [2] addresses hSIRPαV2 expressed on the cell surface (human) (UniProt P78324). Description: FACS competition on EXPI293 cells stably expressing hSIRPαV2: biotinylated hCD47:Fc (2.5 µg/ml) mixed with serial dilutions of the antibody, bound hCD47:Fc detected with streptavidin-PE (MFI); blocked ligand: hCD47:Fc.
For assay [3] the target is unchanged. Description: flow cytometry on monocytes in PBMCs, FIG. 6B. (Flow cytometry measures light scatter and fluorescence of single cells or particles in a stream.)
Assay [4] shares this target. Description: flow cytometry on primary human monocytes (FSC/SSC gate) in PBMCs expressing only SIRPαV2, antibody detected with APC-(Fab)2 goat anti-human IgG Fc (MFI at about 670 nm).

B1: Ab1_G4 (antibody, human IgG4 S228P, kappa, V domains shown)
VH: EVQLVESGGGLVKPGGSLRLSCAASGFTFSSYVMSWVRQTPGKGLEWVATISSGGTYTYYPSSVKGRFTLSRDNAKNSLYLQMNSLRAEDTAVYYCASSLTGSSFDYWGQGTTVTVSS
VL: DIVLTQSPASLAVSLGERATISCRASESVDLYGTSFMHWYQQKPGQPPKLLIYRASNLESGVPDRFSGSGSRTDFTLTINPLQAEDVATYYCHQSSDELPWTFGGGTKVEIKR
On to B1, for which the binding result in assay [1] and in assay [2] was “binds” in each case.

B2: Ab8_G4 (antibody, human IgG4 S228P, kappa, V domains shown)
VH: EVQLVESGGGLVKPGGSLRLSCAASGFTFSSYVMSWVRQTPGKGLEWVATISSGGTYTYYPESVKGRFTLSRDNAKNSLYLQMNSLRAEDTAVYYCASQLTGSEFDYWGQGTTVTVSS
VL: DIVMTQSPASLAVSLGERATISCRASESVDSYGNSFMHWYQQKPGQPPKLLIYRASNLESGVPDRFSGSGSRTDFTLTINPLQAEDVATYYCHQSADLPWTFGGGTKVEIKR
With B2, in assay [1], the binding entry is given as “binds”.

B3: Ab2_G4 (antibody, human IgG4 S228P, kappa, V domains shown)
VH: EVQLVESGGGLVKPGGSLRLSCAASGFTFSSYVMSWVRQTPGKGLEWVATISSGGTYTYYPDSVKGRFTLSRDNAKNSLYLQMNSLRAEDTAVYYCASSVDGSAFDYWGQGTTVTVSS
VL: DIVITQSPASLAVSLGERATISCRASESVDSYGMSFMHWYQQKPGQPPKLLIYRASNLESGVPDRFSGSGSRTDFTLTINPLQAEDVATYYCHQSSENLPWTFGGGTKVEIKR
In the case of B3, the binding entry in assay [1] and in assay [2] was “binds” throughout.

B4: Ab9_G4 (antibody, human IgG4 S228P, kappa, V domains shown)
VH: EVQLVESGGGLVKPGGSLRLSCAASGFTFSSYVMSWVRQTPGKGLEWVATISSGGTYTYYPNSVKGRFTLSRDNAKNSLYLQMNSLRAEDTAVYYCVSSMTGSSFDYWGQGTTVTVSS
VL: DIVITQSPASLAVSLGERATISCRASESVDSYGNSFMHWYQQKPGQPPKLLIYRASNLESGVPDRFSGSGSRTDFTLTINPLQAEDVATYYCHQSSEQLPWTFGGGTKVEIKR
Consider B4, for which the binding entry in assay [1] and in assay [2] was “binds” in each case.

B5: Ab11_G4 (antibody, human IgG4 S228P, kappa, V domains shown)
VH: EVQLVESGGGLVKPGGSLRLSCAASGFTFSSYVMSWVRQTPGKGLEWVATISSGGTYTYYPDSVKGRFTLSRDNAKNSLYLQMNSLRAEDTAVYYCASQLTGSEFDYWGQGTTVTVSS
VL: DIVITQSPASLAVSLGERATISCRASESVDSYGNSFMHWYQQKPGQPPKLLIYRASNLESGVPDRFSGSGSRTDFTLTINPLQAEDVATYYCHQSGDLPWTFGGGTKVEIKR
B5: the binding result in assay [1], in assay [3], in assay [4] and in assay [2] was “binds” throughout.

B6: Ab24_G2 (antibody, human IgG2, kappa)
heavy: EVQLVESGGGLVKPGGSLRLSCAASGFTFSSYVMSWVRQTPGKGLEWVATISSGGTYTYYPDSVKGRFTLSRDNAKNSLYLQMNSLRAEDTAVYYCASQLTGSEFDYWGQGTTVTVSSASTKGPSVFPLAPCSRSTSESTAALGCLVKDYFPEPVTVSWNSGALTSGVHTFPAVLQSSGLYSLSSVVTVPSSNFGTQTYTCNVDHKPSNTKVDKTVERKCCVECPPCPAPPVAGPSVFLFPPKPKDTLMISRTPEVTCVVVDVSHEDPEVQFNWYVDGVEVHNAKTKPREEQFNSTFRVVSVLTVVHQDWLNGKEYKCKVSNKGLPAPIEKTISKTKGQPREPQVYTLPPSREEMTKNQVSLTCLVKGFYPSDIAVEWESNGQPENNYKTTPPMLDSDGSFFLYSKLTVDKSRWQQGNVFSCSVMHEALHNHYTQKSLSLSPGK
light: DIVLTQSPASLAVSLGERATISCRASESVDLYGTSFMHWYQQKPGQPPKLLIYRASNLESGVPDRFSGSGSRTDFTLTINPLQAEDVATYYCHQSSDELPWTFGGGTKVEIKRTVAAPSVFIFPPSDEQLKSGTASVVCLLNNFYPREAKVQWKVDNALQSGNSQESVTEQDSKDSTYSLSSTLTLSKADYEKHKVYACEVTHQGLSSPVTKSFNRGEC
B6: the binding entry in assay [2] is “binds”.

B7: Ab24_4422 PA (antibody, human IgG4 S228P, kappa)
heavy: EVQLVESGGGLVKPGGSLRLSCAASGFTFSSYVMSWVRQTPGKGLEWVATISSGGTYTYYPDSVKGRFTLSRDNAKNSLYLQMNSLRAEDTAVYYCASQLTGSEFDYWGQGTTVTVSSASTKGPSVFPLAPCSRSTSESTAALGCLVKDYFPEPVTVSWNSGALTSGVHTFPAVLQSSGLYSLSSVVTVPSSSLGTKTYTCNVDHKPSNTKVDKRVESKYGPPCPPCPAPPVAGPSVFLFPPKPKDTLMISRTPEVTCVVVDVSHEDPEVQFNWYVDGVEVHNAKTKPREEQFNSTFRVVSVLTVVHQDWLNGKEYKCKVSNKGLAAPIEKTISKTKGQPREPQVYTLPPSREEMTKNQVSLTCLVKGFYPSDIAVEWESNGQPENNYKTTPPMLDSDGSFFLYSKLTVDKSRWQQGNVFSCSVMHEALHNHYTQKSLSLSPGK
light: DIVLTQSPASLAVSLGERATISCRASESVDLYGTSFMHWYQQKPGQPPKLLIYRASNLESGVPDRFSGSGSRTDFTLTINPLQAEDVATYYCHQSSDELPWTFGGGTKVEIKRTVAAPSVFIFPPSDEQLKSGTASVVCLLNNFYPREAKVQWKVDNALQSGNSQESVTEQDSKDSTYSLSSTLTLSKADYEKHKVYACEVTHQGLSSPVTKSFNRGEC
For the molecule B7, the binding entry in assay [2] is on record as “binds”.
